Assay results taken from publication PMC9718832, “An NKX-COUP-TFII morphogenetic code directs mucosal endothelial addressin expression” (Nature Communications, 2022).
The exact form of at least one protein or probe is not confirmed. For some of these results: No signal at the amounts used counts as a negative. At least one verdict was read from the data and is not stated in words by the source. For some of these results: Tags and fusion partners may be left off the protein sequences shown.

Protein sequences, listed by entry. Tags and fused reporters are not part of them.
UniProt P97334, whole entry: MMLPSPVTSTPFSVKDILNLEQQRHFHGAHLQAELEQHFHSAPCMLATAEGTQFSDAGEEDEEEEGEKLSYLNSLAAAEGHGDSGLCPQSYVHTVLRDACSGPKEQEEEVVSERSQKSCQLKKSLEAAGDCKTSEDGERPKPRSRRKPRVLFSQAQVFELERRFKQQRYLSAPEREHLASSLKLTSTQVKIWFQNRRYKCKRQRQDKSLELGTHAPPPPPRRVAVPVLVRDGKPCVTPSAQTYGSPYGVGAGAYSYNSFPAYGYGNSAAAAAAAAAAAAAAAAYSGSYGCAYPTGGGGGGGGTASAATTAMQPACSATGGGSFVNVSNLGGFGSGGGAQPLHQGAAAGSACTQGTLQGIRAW

How the values were obtained:
Assay in all cases: EMSA
COUP-TFII (mouse) = biological target: T1, COUP-TFII (mouse) (UniProt P43135); settings: EMSA: 20 mM Tris pH 8.0, 10 mM KCl, 1 mM DTT, 20% glycerol, 12.5 ng poly dI/C, 6.25 pmol random ss oligo, BSA, 1-2 pmol probe, 4 C; recombinant protein; protein details: His, T7 (pET21A)
T1 sequence (looked up, limits assumed): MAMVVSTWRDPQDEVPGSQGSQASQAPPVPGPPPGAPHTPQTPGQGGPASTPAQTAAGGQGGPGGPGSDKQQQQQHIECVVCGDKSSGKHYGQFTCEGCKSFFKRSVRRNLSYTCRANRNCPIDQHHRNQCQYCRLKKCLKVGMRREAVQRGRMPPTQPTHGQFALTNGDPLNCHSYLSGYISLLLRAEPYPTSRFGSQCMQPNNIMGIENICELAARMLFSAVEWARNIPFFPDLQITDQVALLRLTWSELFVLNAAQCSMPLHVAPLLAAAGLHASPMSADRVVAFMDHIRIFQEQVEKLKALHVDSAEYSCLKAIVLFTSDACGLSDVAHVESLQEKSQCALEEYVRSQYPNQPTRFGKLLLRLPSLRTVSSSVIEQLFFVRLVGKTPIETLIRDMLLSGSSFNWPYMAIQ

NKX2-3 (mouse) = NKX2-3 (mouse) (UniProt P97334); settings: EMSA: 20 mM Tris pH 8.0, 10 mM KCl, 1 mM DTT, 20% glycerol, 12.5 ng poly dI/C, 6.25 pmol random ss oligo, BSA, 1-2 pmol probe, 4 C; recombinant protein; protein details: His, T7 (pET21A)
NKX2-1 + COUP-TFII = settings: COUP-TFII tag not stated; EMSA: 20 mM Tris pH 8.0, 10 mM KCl, 1 mM DTT, 20% glycerol, 12.5 ng poly dI/C, 6.25 pmol random ss oligo, BSA, 1-2 pmol probe, 4 C; recombinant protein; protein details: pET21A tags (Cyagen),His, T7 (pET21A)

“CCATGCACTTGAAAAAAAATGGTGACCCACCTCC (double strand) [Madcam1 CE_deltaC_A]”: binds (COUP-TFII (mouse)); binds (NKX2-3 (mouse)).
“CCATGCACTTGAGGCACCATGGTGAGGCACCTCC (double strand) [Madcam1 CE m3 (both COUP-TFII sites mutated)]”: no binding (COUP-TFII (mouse)).
“TTGCCAAATTATGTGAAAATTGGCAGACCAGCTG (double strand) [Nrp2_deltaC_A NCCE]”: binds (NKX2-1 + COUP-TFII).
